Experimental data taken from article PMC11922060.
Residue numbers refer to the chain shown, from its start. In names and notes the source's numbering stands. Results are given in words; binding and its absence hold for the method and conditions named. Some results given as binding are weak or reduced against the parent protein; the word gives no strength. For some of these results: Tags and fused reporters may be left off the sequences shown. Values belong to the binder of their own block, whether it stands above or below them.

Experiments:
[1] = target: Sumo-tagged Drosophila Spd-2 SP2D (Spd-2 697-998), wild type (D. melanogaster) (UniProt Q9VV79); test: SEC-MALS; Sumo-tagged SP2D at a range of protein concentrations (indicated in the figure); Superose 12 Increase 10/300 GL, 50 mM tris pH 8.0, 150 mM NaCl, 1 mM DTT; both purified
[2] = target: Sumo-tagged Drosophila Spd-2 SP2D (Spd-2 697-998) F822D (D. melanogaster) (UniProt Q9VV79); test: as above
[3] = target: Sumo-tagged Drosophila Spd-2 SP2D (Spd-2 697-998) P817D (D. melanogaster) (UniProt Q9VV79); test: as above
[4] = target: Drosophila Spd-2 ASH3 domain (Spd-2 1047-1146) (D. melanogaster) (UniProt Q9VV79); test: SEC-MALS; untagged protein (His tag cleaved); Superose 12 Increase 10/300 GL, 50 mM tris pH 8.0, 150 mM NaCl, 1 mM DTT; both purified

B2: Sumo-tagged Drosophila Spd-2 SP2D (Spd-2 697-998) F822D (domain or fragment, UniProt Q9VV79 697-998)
chain: LLPLKVTHTTLCWGSTKLRTDVRKSMQVKNTADKRLVIRLGIQGPGFQLVGTDSSTITLQAMECRSVVINFCPTVCGAAIGALSFYAPPGAHNSNQPGLEIPLYGYGGSASITINGLLKGPVGASDLTIGDVCELSAGPLSANLKFHNKGPLTAFVGISVDSTVLMKLRLSEAFEVRPSRLILPPNSERCVQILFRPNREDLKNILKKTAQVLTLANMRIFCGDEPNRQRMRSLVQRMSSRQREKLTSPMLDSIWGEFPDEQPVRNIGQLNEPPEFILDLVTVVRIIDVALTLNRDFDESSE
binding [2]: no binding

B4: Drosophila Spd-2 ASH3 domain (Spd-2 1047-1146) (domain or fragment, UniProt Q9VV79 1047-1146)
chain: VEQNWCVQPGLLEFGVGCSPLATLSVTNSFCSRQLIEVTCNVPDLVRISPSECYVSPDGGHAEIDVRLLRSPRQDLLEREPLIVVSMENERISVPISFKF
binding [4]: no binding

Further lines, results first:

binding [1]: binds weakly
B1: Sumo-tagged Drosophila Spd-2 SP2D (Spd-2 697-998), wild type (domain or fragment, UniProt Q9VV79 697-998)
chain: B2 chain with D126F

binding [3]: no binding
B3: Sumo-tagged Drosophila Spd-2 SP2D (Spd-2 697-998) P817D (domain or fragment, UniProt Q9VV79 697-998)
chain: B2 chain with P121D, D126F
